{"source": "patent US20070212355A1", "about": "(priority 2005, published 2007)", "binders": {"B1": {"name": "A2S GLP-2 IgG4 mimetibody (Fc fusion)", "chain": "HSDGSFSDEMNTILDNLAARDFINWLIQTKITDGSGGGSGTLVTVSSESKYGPPCPPCPAPEAAGGPSVFLFPPKPDTLMISRTPEVTCVVVDVSQEDPEVQFNWYVDGVEVHNAKTKPREEQFNSTYRVVSVLTVLHQDWLNGKEYKCKVSNKGLPSSIEKTISKAKGQPREPQVYTLPPSQEEMTKNQVSLTCLVKGFYPSDIAVEWESNGQPENNYKTTPPVLDSDGSFFLYSRLTVDKSRWQEGNVFSCSVMHEALHNHYTQKSLSLSLGK"}}, "target": "A2S GLP-2 IgG4 mimetibody", "assay": "SEC-SLS, self-association of the mimetibody", "note": "No constants are given. Whether binding was seen depends on the method and setting. Some results given as binding are weak or reduced against the parent protein; the word gives no strength.", "data": [{"binder": "B1", "values": [{"measurement": "binding", "value": "binds"}]}]}
